Source: the supplement of paper PMC10849652
Some of the results follow.

Amino acid sequences for entries named in this document (tags omitted). A change or cut given only in a name is not applied to a line headed by its entry.
UniProt Q9UKR5: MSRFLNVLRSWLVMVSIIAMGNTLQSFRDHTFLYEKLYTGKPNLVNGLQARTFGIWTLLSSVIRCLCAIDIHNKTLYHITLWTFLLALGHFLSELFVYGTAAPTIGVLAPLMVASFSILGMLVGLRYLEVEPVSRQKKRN
UniProt Q9H8W3: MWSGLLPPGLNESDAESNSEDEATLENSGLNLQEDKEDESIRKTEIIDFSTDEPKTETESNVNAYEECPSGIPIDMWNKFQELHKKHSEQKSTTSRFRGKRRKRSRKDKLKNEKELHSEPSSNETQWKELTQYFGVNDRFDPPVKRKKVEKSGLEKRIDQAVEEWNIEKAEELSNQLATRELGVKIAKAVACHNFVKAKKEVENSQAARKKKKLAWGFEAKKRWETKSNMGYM
UniProt O60447: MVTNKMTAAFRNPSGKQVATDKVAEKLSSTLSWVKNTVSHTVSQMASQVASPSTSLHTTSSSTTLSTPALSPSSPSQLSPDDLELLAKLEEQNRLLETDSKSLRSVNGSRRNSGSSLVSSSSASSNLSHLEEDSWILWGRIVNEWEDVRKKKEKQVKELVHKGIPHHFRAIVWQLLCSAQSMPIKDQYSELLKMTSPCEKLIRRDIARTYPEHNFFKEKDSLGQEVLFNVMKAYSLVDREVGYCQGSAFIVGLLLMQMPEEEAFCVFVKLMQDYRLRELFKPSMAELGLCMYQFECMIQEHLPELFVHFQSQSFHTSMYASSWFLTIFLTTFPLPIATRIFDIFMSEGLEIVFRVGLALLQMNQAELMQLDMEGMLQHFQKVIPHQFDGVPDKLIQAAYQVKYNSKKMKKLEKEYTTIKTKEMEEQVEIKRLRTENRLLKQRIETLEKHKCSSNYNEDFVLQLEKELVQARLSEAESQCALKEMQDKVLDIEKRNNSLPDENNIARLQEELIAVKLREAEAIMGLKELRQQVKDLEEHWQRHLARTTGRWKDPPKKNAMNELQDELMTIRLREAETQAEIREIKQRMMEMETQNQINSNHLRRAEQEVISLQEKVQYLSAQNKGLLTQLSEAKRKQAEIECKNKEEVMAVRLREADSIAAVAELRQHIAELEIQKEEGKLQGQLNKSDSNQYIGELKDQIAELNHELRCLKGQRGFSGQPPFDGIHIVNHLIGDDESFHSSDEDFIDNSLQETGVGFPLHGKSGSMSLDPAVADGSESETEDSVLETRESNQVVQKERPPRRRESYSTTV
UniProt Q6NZ36: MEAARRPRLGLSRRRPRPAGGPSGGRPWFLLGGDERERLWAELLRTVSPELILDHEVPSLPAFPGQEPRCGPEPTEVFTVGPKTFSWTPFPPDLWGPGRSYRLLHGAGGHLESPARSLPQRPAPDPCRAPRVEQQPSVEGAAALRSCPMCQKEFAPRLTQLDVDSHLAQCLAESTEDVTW
UniProt Q9BQ89: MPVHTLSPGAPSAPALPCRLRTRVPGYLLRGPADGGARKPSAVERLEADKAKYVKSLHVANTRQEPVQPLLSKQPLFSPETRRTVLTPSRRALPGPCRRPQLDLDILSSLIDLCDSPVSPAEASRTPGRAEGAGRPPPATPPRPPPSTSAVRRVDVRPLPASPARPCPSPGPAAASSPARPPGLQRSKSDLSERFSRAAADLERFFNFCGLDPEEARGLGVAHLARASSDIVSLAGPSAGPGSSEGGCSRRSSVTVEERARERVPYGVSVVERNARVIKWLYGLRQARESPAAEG
UniProt Q8TE68: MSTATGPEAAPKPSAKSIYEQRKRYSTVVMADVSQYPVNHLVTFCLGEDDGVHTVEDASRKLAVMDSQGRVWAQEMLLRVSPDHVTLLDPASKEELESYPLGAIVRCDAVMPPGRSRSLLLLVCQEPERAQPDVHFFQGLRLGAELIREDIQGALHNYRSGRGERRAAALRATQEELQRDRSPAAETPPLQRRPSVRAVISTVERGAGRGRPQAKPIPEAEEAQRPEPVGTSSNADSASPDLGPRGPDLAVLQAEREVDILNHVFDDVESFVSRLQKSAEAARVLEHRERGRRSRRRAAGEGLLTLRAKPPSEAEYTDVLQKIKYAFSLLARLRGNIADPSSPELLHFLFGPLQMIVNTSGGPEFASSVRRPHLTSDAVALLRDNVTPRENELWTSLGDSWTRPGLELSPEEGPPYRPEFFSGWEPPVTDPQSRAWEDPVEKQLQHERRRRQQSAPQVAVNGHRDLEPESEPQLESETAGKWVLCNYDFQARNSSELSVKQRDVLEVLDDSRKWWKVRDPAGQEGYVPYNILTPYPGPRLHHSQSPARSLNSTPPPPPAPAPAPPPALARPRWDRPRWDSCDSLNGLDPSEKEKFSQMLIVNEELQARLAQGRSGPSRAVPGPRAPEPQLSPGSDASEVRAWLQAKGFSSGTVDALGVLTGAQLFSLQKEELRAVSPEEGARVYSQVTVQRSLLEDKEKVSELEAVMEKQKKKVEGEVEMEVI
UniProt Q9BYI3: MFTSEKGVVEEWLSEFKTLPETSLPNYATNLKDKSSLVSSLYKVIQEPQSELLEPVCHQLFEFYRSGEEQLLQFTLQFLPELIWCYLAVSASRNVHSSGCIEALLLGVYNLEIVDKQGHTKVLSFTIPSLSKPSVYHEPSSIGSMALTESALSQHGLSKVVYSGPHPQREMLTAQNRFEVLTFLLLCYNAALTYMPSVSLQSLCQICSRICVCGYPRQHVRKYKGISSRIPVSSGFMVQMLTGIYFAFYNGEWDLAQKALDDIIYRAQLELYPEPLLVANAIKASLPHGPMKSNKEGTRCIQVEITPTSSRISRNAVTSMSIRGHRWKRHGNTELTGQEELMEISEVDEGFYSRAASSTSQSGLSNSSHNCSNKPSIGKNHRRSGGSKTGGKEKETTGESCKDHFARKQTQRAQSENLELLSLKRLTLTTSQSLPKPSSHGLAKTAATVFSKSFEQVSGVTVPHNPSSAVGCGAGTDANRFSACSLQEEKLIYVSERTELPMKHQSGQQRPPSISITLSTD
UniProt Q8N0U4: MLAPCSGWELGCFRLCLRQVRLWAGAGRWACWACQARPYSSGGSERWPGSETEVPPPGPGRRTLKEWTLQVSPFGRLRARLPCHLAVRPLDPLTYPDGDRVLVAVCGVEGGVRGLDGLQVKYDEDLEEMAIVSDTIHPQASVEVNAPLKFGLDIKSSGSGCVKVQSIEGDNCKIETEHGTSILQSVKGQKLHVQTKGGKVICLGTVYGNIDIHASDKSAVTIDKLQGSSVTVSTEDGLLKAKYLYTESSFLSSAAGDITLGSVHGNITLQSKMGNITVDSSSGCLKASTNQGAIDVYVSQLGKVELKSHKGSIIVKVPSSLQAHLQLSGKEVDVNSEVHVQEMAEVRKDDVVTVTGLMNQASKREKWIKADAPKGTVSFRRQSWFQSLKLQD
UniProt Q8IXS8: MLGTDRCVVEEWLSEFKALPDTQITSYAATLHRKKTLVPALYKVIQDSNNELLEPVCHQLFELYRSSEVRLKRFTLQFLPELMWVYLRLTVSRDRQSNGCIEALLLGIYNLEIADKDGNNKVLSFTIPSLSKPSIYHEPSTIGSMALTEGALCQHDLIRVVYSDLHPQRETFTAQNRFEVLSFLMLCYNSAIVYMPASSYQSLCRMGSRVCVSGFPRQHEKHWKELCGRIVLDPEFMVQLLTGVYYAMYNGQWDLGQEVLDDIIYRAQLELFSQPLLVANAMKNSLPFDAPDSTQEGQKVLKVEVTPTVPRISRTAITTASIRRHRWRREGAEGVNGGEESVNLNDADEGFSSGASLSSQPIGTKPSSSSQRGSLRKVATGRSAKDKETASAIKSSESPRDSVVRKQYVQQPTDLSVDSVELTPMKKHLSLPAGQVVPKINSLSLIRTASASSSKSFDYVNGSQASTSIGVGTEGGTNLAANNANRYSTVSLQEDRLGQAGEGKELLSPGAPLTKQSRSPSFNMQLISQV
UniProt Q5T6L9: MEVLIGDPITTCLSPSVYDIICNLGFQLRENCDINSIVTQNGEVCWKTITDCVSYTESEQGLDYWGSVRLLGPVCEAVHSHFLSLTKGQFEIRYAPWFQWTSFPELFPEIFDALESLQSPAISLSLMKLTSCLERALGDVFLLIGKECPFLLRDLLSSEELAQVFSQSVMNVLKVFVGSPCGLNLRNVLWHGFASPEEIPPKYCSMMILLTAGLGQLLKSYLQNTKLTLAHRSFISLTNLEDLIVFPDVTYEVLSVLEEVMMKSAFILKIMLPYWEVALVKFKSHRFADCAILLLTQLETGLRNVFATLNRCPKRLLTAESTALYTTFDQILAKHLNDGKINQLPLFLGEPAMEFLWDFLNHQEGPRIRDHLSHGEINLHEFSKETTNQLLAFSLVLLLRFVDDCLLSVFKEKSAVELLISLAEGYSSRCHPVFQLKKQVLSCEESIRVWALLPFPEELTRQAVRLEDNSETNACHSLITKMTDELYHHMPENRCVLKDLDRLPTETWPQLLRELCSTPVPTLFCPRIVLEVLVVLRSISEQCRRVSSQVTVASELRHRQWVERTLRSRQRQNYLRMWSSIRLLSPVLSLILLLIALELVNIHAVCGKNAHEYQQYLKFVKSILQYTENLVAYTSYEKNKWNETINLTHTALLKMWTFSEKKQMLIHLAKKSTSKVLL
UniProt Q8IXR5: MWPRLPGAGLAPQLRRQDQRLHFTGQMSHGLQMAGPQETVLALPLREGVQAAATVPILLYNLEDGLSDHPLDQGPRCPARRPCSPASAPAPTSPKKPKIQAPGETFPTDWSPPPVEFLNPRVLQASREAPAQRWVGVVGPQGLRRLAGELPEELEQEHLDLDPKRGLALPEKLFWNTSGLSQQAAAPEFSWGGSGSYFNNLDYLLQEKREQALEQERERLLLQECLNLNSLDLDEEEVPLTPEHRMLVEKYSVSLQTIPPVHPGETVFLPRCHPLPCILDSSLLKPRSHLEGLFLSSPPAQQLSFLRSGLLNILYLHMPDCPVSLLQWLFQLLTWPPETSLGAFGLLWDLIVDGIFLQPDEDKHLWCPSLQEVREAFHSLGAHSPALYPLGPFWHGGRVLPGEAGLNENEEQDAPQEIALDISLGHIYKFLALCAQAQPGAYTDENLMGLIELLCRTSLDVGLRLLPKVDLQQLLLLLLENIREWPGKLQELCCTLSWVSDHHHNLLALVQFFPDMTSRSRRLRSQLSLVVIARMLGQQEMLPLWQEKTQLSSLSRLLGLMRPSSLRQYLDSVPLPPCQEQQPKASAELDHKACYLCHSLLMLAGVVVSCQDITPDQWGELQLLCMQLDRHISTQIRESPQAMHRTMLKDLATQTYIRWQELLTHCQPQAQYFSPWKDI
UniProt P00488: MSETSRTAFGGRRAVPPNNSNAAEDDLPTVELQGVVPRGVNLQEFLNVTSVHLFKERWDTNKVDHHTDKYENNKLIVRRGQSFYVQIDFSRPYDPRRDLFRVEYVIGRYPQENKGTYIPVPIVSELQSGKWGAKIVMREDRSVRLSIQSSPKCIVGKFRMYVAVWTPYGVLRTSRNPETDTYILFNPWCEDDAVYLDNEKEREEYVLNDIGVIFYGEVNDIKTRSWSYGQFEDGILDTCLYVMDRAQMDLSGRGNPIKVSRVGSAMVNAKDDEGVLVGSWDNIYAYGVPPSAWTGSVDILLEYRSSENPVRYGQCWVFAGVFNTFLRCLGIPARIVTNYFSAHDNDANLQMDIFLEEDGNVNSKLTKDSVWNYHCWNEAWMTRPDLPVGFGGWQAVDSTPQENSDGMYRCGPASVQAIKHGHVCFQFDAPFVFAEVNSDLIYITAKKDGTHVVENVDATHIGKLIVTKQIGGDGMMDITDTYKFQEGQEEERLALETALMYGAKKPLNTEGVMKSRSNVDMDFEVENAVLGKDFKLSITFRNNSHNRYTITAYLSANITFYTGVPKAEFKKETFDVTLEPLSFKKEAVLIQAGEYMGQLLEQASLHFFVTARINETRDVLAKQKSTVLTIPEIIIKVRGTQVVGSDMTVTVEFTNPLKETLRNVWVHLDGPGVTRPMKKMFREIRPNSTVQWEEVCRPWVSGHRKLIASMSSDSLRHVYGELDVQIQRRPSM
UniProt P00740, whole entry, looked up: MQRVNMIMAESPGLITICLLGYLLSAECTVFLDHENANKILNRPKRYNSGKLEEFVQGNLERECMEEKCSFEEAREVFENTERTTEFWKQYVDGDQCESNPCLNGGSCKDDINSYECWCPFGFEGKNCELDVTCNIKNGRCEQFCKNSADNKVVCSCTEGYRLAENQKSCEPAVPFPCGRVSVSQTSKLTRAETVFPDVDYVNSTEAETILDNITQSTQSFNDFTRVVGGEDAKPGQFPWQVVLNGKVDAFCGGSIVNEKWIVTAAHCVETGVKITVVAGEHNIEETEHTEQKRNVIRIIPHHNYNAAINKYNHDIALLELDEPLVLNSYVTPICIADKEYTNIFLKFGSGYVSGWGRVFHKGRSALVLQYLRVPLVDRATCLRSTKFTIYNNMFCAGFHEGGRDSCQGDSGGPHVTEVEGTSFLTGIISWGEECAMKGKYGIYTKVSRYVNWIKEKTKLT

Assays:
Assay in all cases: log2 fold change, soluble protein after heating vs DMSO (PISA); higher = thermal stabilisation; K562 cells, 10 uM, 30 min; active = over 0.2 and 3.5 SD of the protein, either way, in both replicates (recomputed)
[1] = compound: CS(=O)(=O)c1ccc(-c2cnc(N)c(C(=O)Nc3ccccc3)n2)cc1
Method in brief: (§1)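 Soluble protein was quantified by TMTpro 16plex LC-MS/MS after channel sums were equalised. It was obtained as the supernatant after 21,000xg for 90 min from pooled aliquots of K562 cells (2×10^6 cells/mL, 10 μM compound, 30 min) heated for 3 min across 48°C-58°C and extracted in PBS with 0.5% NP-40 at 4°C. Thermal stability values are relative to control samples and come from duplicates. They are given as log2 fold changes.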

crizotinib = compound: C[C@@H](Oc1cc(-c2cnn(C3CCNCC3)c2)cnc1N)c1c(Cl)ccc(F)c1Cl [crizotinib]
Method in brief: as §1

[2] = compound: C[C@@H]1COCCN1C2=NC(=NC(=C2)C3(CC3)S(=O)(=O)C)C4=C5C=CNC5=CC=C4
Method in brief: as §1

[3] = compound: C[C@H](C1=CC=C(C=C1)C(=O)NC2=C3C=CNC3=NC=C2)N
Method in brief: as §1

tozasertib = compound: Cc1cc(Nc2cc(N3CCN(C)CC3)nc(Sc3ccc(NC(=O)C4CC4)cc3)n2)n[nH]1 [tozasertib]
Method in brief: as §1

doramapimod = compound: Cc1ccc(-n2nc(C(C)(C)C)cc2NC(=O)Nc2ccc(OCCN3CCOCC3)c3ccccc23)cc1 [doramapimod]
Method in brief: as §1

ispinesib = compound: Cc1ccc(C(=O)N(CCCN)[C@@H](c2nc3cc(Cl)ccc3c(=O)n2Cc2ccccc2)C(C)C)cc1 [ispinesib]
Method in brief: as §1

bafetinib = compound: Cc1ccc(NC(=O)c2ccc(CN3CC[C@H](N(C)C)C3)c(C(F)(F)F)c2)cc1Nc1nccc(-c2cncnc2)n1 [bafetinib]
Method in brief: as §1

nilotinib = compound: Cc1cn(-c2cc(NC(=O)c3ccc(C)c(Nc4nccc(-c5cccnc5)n4)c3)cc(C(F)(F)F)c2)cn1 [nilotinib]
Method in brief: as §1

[4] = compound: Cc1nc(Nc2n[nH]c3c2CN(C(=O)N[C@H](CN(C)C)c2ccccc2)C3(C)C)c2sccc2n1
Method in brief: as §1

[5] = compound: Cc1ncc(-c2ccnc(Nc3ccc(S(C)(=O)=O)cc3)n2)n1C(C)C
Method in brief: as §1

[6] = compound: Cn1cc(-c2ccc3c(c2)CCN3C(=O)Cc2cccc(C(F)(F)F)c2)c2c(N)ncnc21
Method in brief: as §1

[7] = compound: Cn1cc(-c2ccc3nnc(C(F)(F)c4ccc5ncccc5c4)n3n2)cn1
Method in brief: as §1

tipifarnib = compound: Cn1cncc1[C@@](N)(c1ccc(Cl)cc1)c1ccc2c(c1)c(-c1cccc(Cl)c1)cc(=O)n2C [tipifarnib]
Method in brief: as §1

mubritinib = compound: FC(F)(F)c1ccc(/C=C/c2nc(COc3ccc(CCCCn4ccnn4)cc3)co2)cc1 [mubritinib]
Method in brief: as §1

gandotinib = compound: Cc1cc(Nc2cc(CN3CCOCC3)c3nc(C)c(Cc4ccc(Cl)cc4F)n3n2)n[nH]1 [gandotinib]
Method in brief: as §1

[8] = compound: Cc1cccc(CC(=O)N2CCc3c2ccc(-c2cn(C)c4ncnc(N)c24)c3F)n1
Method in brief: as §1

duvelisib = compound: C[C@H](Nc1ncnc2nc[nH]c12)c1cc2cccc(Cl)c2c(=O)n1-c1ccccc1 [duvelisib]
Method in brief: as §1

[9] = compound: Cc1cc(SCc2sc(-c3ccc(C(F)(F)F)cc3)nc2C)ccc1OCC(=O)O
Method in brief: as §1

dasatinib = compound: Cc1nc(Nc2ncc(C(=O)Nc3c(C)cccc3Cl)s2)cc(N2CCN(CCO)CC2)n1 [dasatinib]
Method in brief: as §1

Measured: log2 fold change

ERG28 (UniProt Q9UKR5)
inactive: [1] -0.034 | crizotinib 0.119 | [2] -0.033 | [3] -0.087 | tozasertib -0.091 | doramapimod 0.037 | ispinesib 0.025 | bafetinib -0.139 | nilotinib 0.035 | [4] -0.028 | [5] -0.062 | [6] 0.008 | [7] 0.089 | tipifarnib 0.041 | mubritinib 0.003

FAM204A (UniProt Q9H8W3)
inactive: [1] 0.054 | [2] -0.267 | [3] 0.194 | gandotinib 0.037 | tozasertib 0.157 | [8] -0.126 | [6] 0.017 | mubritinib -0.107

EVI5 isoform 2 (UniProt O60447)
inactive: [3] 0.067 | duvelisib 0.042 | gandotinib -0.111 | tozasertib 0.504 | [9] -0.029 | ispinesib -0.228 | [8] 0.088 | dasatinib -0.202 | [6] -0.147 | [7] 0.013 | tipifarnib 0.01

EWSR1 (UniProt H7BY36)
inactive: [2] -0.077 | [3] 0.01 | bafetinib -0.037 | nilotinib 0.068 | [4] 0.291 | [5] 0 | [6] 0.09 | tipifarnib 0.063 | mubritinib 0.093

FAM160B2 (UniProt Q86V87)
inactive: [3] -0.017 | gandotinib 0.328 | [8] 0 | [6] 0.065 | mubritinib -0.074

ERICH1 (UniProt Q86X53)
inactive: crizotinib -0.027 | tozasertib -0.081 | doramapimod -0.092 | tipifarnib 0.048

FAAP20 isoform 2 (UniProt Q6NZ36)
inactive: [2] 0.233 | gandotinib 0.116 | [8] -0.289 | mubritinib 0.084

FAM110A (UniProt Q9BQ89)
inactive: [2] -0.224 | gandotinib -0.076 | [8] 0.005

F13B (UniProt P05160)
inactive: [3] -0.307 | tozasertib 0.104 | [6] -0.002

EPS8L1 (UniProt Q8TE68)
inactive: [2] -0.333 | [3] -0.058 | duvelisib -0.015 | [9] 0.114 | bafetinib -0.437 | dasatinib -0.029 | [6] 0.005

FAM126A (UniProt Q9BYI3)
inactive: [2] -0.223 | ispinesib -0.063 | [7] 0.085 | mubritinib 0.041

FAM185A (UniProt Q8N0U4)
inactive: crizotinib 0.124 | duvelisib -0.248 | tozasertib -0.047 | [9] -0.273 | doramapimod 0.044 | ispinesib 0.279 | bafetinib -0.047 | nilotinib -0.024 | [4] 0.056 | dasatinib -0.145 | [5] 0.009 | [7] 0.061 | tipifarnib 0.093 | mubritinib 0.075

FAM126B (UniProt Q8IXS8)
inactive: duvelisib 0.19 | gandotinib -0.145 | [9] 0.079 | [8] -0.018 | nilotinib -0.073 | [4] 0.072 | dasatinib -0.129 | [5] 0.212 | tipifarnib 0.001

ERMARD (UniProt Q5T6L9)
inactive: [3] -0.031 | [6] 0.408 | mubritinib 0.01

Retrieved one by one from the entries so far, two records:
EPS8L1 (UniProt Q8TE68)
inactive: [2] -0.333 | [3] -0.058 | duvelisib -0.015 | [9] 0.114 | bafetinib -0.437 | dasatinib -0.029 | [6] 0.005

FAM126A (UniProt Q9BYI3)
inactive: [2] -0.223 | ispinesib -0.063 | [7] 0.085 | mubritinib 0.041

Continued.

FAM178B (UniProt Q8IXR5)
inactive: gandotinib -0.097 | [8] -0.028

EXOG (UniProt Q9Y2C4)
inactive: [3] -0.005 | duvelisib -0.007 | gandotinib 0.05 | tozasertib 0.176 | [9] 0.036 | ispinesib 0.101 | [8] -0.051 | dasatinib -0.11 | [6] -0.032 | [7] 0.123 | tipifarnib 0.091 | mubritinib 0.025

F13A1 (UniProt P00488)
inactive: duvelisib 0.205 | tozasertib -0.216 | [9] -0.011 | bafetinib -0.169 | nilotinib -0.09 | [4] 0.039 | dasatinib -0.006 | [5] 0.08 | mubritinib -0.191

FAM122B isoform 2 (UniProt Q7Z309)
inactive: [3] -0.014 | [6] 0.031 | mubritinib -0.015

F9 (UniProt P00740)
inactive: [3] -0.137 | duvelisib -0.047 | tozasertib 0.007 | [9] -0.326 | bafetinib -0.081 | nilotinib -0.119 | [4] -0.16 | dasatinib -0.184 | [5] 0.31 | [6] 0.045 | tipifarnib -0.139
